Measured values as given in article PMC10296241.
Results are given in words; binding and its absence hold for the method and conditions named. In cells and extracts the contact can be indirect. Some entries that bind do so weakly or less than the wild type.

Amino acid sequences for entries named in this document (tags omitted).
UniProt P04608: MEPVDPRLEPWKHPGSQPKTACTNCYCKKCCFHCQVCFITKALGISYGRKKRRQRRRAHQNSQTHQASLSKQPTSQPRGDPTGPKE
UniProt Q92993: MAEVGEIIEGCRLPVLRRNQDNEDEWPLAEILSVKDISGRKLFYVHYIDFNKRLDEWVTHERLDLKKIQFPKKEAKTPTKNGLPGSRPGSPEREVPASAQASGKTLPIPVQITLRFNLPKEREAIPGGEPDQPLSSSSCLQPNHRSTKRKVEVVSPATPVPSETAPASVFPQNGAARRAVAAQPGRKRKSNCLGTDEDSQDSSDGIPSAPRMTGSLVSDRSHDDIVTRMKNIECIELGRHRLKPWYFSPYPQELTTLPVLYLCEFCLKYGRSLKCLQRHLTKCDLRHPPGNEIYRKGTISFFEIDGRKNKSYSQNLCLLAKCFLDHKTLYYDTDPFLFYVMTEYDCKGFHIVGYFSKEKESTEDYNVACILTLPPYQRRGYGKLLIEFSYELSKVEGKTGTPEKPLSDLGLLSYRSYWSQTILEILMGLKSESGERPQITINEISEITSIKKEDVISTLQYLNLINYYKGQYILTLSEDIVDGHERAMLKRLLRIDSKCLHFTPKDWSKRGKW

Biological target: HIV-1 Tat transcriptional activator (HIV-1) (UniProt P04608)
Test: co-IP; J-Lat cells cultured with (P/I) or without (CM) mitogens for 6 h; whole extracts in RIPA buffer (50 mM Tris-HCl pH 7.4, 150 mM NaCl, 1% Triton X-100, 1% sodium deoxycholate, 0.1% SDS, 1 mM EDTA); immunoprecipitation with rabbit polyclonal anti-Tat (ab43014) on magnetic protein G beads; Western blot for NFAT2 or Tip60

Molecule: Tip60 (from UniProt Q92993 1-513)
- binding: binds

B1: NFAT2 (protein, UniProt O95644 1-943)
chain: MPSTSFPVPSKFPLGPAAAVFGRGETLGPAPRAGGTMKSAEEEHYGYASSNVSPALPLPTAHSTLPAPCHNLQTSTPGIIPPADHPSGYGAALDGGPAGYFLSSGHTRPDGAPALESPRIEITSCLGLYHNNNQFFHDVEVEDVLPSSKRSPSTATLSLPSLEAYRDPSCLSPASSLSSRSCNSEASSYESNYSYPYASPQTSPWQSPCVSPKTTDPEEGFPRGLGACTLLGSPRHSPSTSPRASVTEESWLGARSSRPASPCNKRKYSLNGRQPPYSPHHSPTPSPHGSPRVSVTDDSWLGNTTQYTSSAIVAAINALTTDSSLDLGDGVPVKSRKTTLEQPPSVALKVEPVGEDLGSPPPPADFAPEDYSSFQHIRKGGFCDQYLAVPQHPYQWAKPKPLSPTSYMSPTLPALDWQLPSHSGPYELRIEVQPKSHHRAHYETEGSRGAVKASAGGHPIVQLHGYLENEPLMLQLFIGTADDRLLRPHAFYQVHRITGKTVSTTSHEAILSNTKVLEIPLLPENSMRAVIDCAGILKLRNSDIELRKGETDIGRKNTRVRLVFRVHVPQPSGRTLSLQVASNPIECSQRSAQELPLVEKQSTDSYPVVGGKKMVLSGHNFLQDSKVIFVEKAPDGHHVWEMEAKTDRDLCKPNSLVVEIPPFRNQRITSPVHVSFYVCNGKRKRSQYQRFTYLPANVPIIKTEPTDDYEPAPTCGPVSQGLSPLPRPYYSQQLAMPPDPSSCLVAGFPPCPQRSTLMPAAPGVSPKLHDLSPAAYTKGVASPGHCHLGLPQPAGEAPAVQDVPRPVATHPGSPGQPPPALLPQQVSAPPSSSCPPGLEHSLCPSSPSPPLPPATQEPTCLQPCSPACPPATGRPQHLPSTVRRDESPTAGPRLLPEVHEDGSPNLAPIPVTVKREPEELDQLYLDDVNEIIRNDLSSTSTHS
- binding: no binding
